Results are given in words; binding and its absence hold for the method and conditions named. In cells and extracts the contact can be indirect. Some binding calls cover weakened binding; strength is not graded here.
Molecular target: T1, apoptosis-associated speck-like protein containing a CARD (ASC) (mouse (endogenous in BMDMs)) (UniProt Q9EPB4)
T1 sequence: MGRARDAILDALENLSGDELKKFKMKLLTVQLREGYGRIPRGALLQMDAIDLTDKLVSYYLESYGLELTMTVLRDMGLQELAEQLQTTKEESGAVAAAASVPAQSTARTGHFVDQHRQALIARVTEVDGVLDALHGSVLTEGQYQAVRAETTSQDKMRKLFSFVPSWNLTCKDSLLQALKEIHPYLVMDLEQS
Assay: co-IP; endogenous proteins; LPS (500 ng/ml)-primed BMDMs treated with or without LND (0.2 mM) for 30 min, then ATP for 30 min; IP lysis buffer, primary antibody or normal IgG overnight at 4 °C, protein G beads, immunoblot

binding: binds
B1: caspase-1 (enzyme, UniProt P29452 1-402)
chain: MADKILRAKRKQFINSVSIGTINGLLDELLEKRVLNQEEMDKIKLANITAMDKARDLCDHVSKKGPQASQIFITYICNEDCYLAGILELQSAPSAETFVATEDSKGGHPSSSETKEEQNKEDGTFPGLTGTLKFCPLEKAQKLWKENPSEIYPIMNTTTRTRLALIICNTEFQHLSPRVGAQVDLREMKLLLEDLGYTVKVKENLTALEMVKEVKEFAACPEHKTSDSTFLVFMSHGIQEGICGTTYSNEVSDILKVDTIFQMMNTLKCPSLKDKPKVIIIQACRGEKQGVVLLKDSVRDSEEDFLTDAIFEDDGIKKAHIEKDFIAFCSSTPDNVSWRHPVRGSLFIESLIKHMKEYAWSCDLEDIFRKVRFSFEQPEFRLQMPTADRVTLTKRFYLFPGH

From article PMC9798610
